From patent US20230107034A1
Where a chain is given by its changes, count along the chain named. No constants are given. Whether binding was seen depends on the method and setting. Some binding calls cover weakened binding; strength is not graded here.

The chains behind the UniProt entries cited, without tags or fusion partners. Residues count along the entry.
UniProt P05067, residues 672-713: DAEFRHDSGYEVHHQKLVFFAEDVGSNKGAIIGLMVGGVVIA

B1: B73 (hybridoma-purified mAb) (antibody, V domains shown)
VH: QLQLQMSGPGLVKPSETLSLTCTVSGGSISSSSYYWGWIRQSPGKGLEWIGSIYYSGRTYYNPSLKSRVTISVDTSKNQFSLKLSSVTAADTAMYYCARRSSGRPYYWGQGTLVTVSS
VL: QAVVTQESALTTSPGGTVILTCRSSTGAVTTSNYANWVQEKPDHLFTGLIGETNNRAPGVPVRFSGSLIGDKAALTITGAQTEDDAMYFCALWYSTHWVFGGGTKLTVL
B2: B19 reprep (=B24) (antibody, V domains shown)
VH: EVQLLESGGGLVQPGGSLRLSCAASGFTFSSYAMTWVRQAPGEGLEWVSTISGSGIRTYYADSVKGRFTISRDNSKNTMYLQMNSLRAEDTAVYYCAKDGLTGDRRWYFDLWGRGTLVTVSS
VL: EIVMTQSPATLSLSPGERATLSCRASQSVSSSYFSWYQQKPGQAPRLLIYGASTRATGIPARFSGSGSGTDFTLTISSLQPEDFAVYYCQQDSNLPLTFGGGTKVEIK
B3: B24 (hybridoma-purified mAb) (antibody, V domains shown)
VH: B2 VH
VL: B2 VL
B4: B28 (hybridoma-purified mAb) (antibody, V domains shown)
VH: QVQLVESGGGVVQPGRSVRLSCAATGFTFSSYGMHWVRQAPGKGLEWVAVIWFDGSNEYYADSVRGRFTISRDNSKNTLYLQMNSLRAEDTAVYYCARRGRVGVTRNYYYYNMDVWGQGTTVTVSS
VL: AIQMTQSPSSLSASVGDRVTITCRASQGIRNDLGWFQQKPGKAPKLLIYPASSLQSGVPSRFSGSGSDTDFTLTISSLQPEDFATYYCLQDYNFPFTFGPGTKVDIK
B5: B54 (hybridoma-purified mAb) (antibody, V domains shown)
VH: QVQLVESGGGVVQPGRSLRLSCAASGFTFSTYGMHWVRQAPGKGLEWVALIWYDGSKKYYADSVQGRFTISRDSSKNTLYLQMNSLRVEDTAVYYCARRGRVGVTRNYYYYGMDVWGQGTTVTVSS
VL: B4 VL with A25T, G28D, L46F, S56G, D68G, T72I, F96W, P100E, D105E
B6: B90 (hybridoma-purified mAb) (antibody, V domains shown)
VH: B5 VH with T31S, L50I, Q65K, S74N, V104A, N107D, G112S
VL: B4 VL with Q37H, P50A, D68G, N93V, F94Y, F96W, P100Q, D105E
B7: rB28 (recombinant B28, human IgG1 LALA) (antibody, V domains shown)
VH: B4 VH
VL: AIQMTQSPSSLSASVGDRVTITCRASQGIRNDLGWFQQKPGKAPKLLIYPASSLQSGVPSRFSGSGSDTDFTLTISSLQPEDFATYYCLQDYNFPFTFGPGTKVDIKR
B8: rB73 (recombinant B73, human IgG1 LALA) (antibody, V domains shown)
VH: B1 VH
VL: QAVVTQESALTTSPGGTVILTCRSSTGAVTTSNYANWVQEKPDHLFTGLIGETNNRAPGVPVRFSGSLIGDKAALTITGAQTEDDAMYFCALWYSTHWVFGGGTKLTVLG

Experiments:
[1] = target: synthetic Aβ protofibrils (Aβ1-42-derived protofibrils) (UniProt P05067); experiment: biochemical binding profile of hybridoma-purified mAbs
[2] = target: synthetic Aβ protofibrils (Aβ1-42-derived protofibrils) (UniProt P05067); experiment: binding profile column of Table 5
[3] = target: amyloid plaques (Aβ deposits) in human AD brain sections (human) (UniProt P05067); experiment: immunohistochemistry on paraffin-embedded, PFA-fixed AD brain sections
[4] = target: amyloid plaques (Aβ deposits) in human AD brain sections (human) (UniProt P05067); experiment: immunohistochemistry on paraffin-embedded PFA-fixed brain sections
[5] = target: amyloid plaques (Aβ deposits) in human AD brain sections (human) (UniProt P05067); experiment: immunohistochemistry on non-fixed brain cryo-sections

| Binder | binding [1] | binding [2] | also measured |
| --- | --- | --- | --- |
| B1 | binds | binds | – |
| B2 | – | binds | – |
| B3 | binds | binds | – |
| B4 | – | binds | – |
| B5 | – | binds | – |
| B6 | binds | binds | – |
| B7 | – | – | binding [3]: binds; binding [4]: binds; binding [5]: binds |
| B8 | – | – | binding [5]: binds |
